Results: patent US20070050866A1
These are yes or no findings as the source states them, for the method shown. Some results given as binding are weak or reduced against the parent protein; the word gives no strength. Where a sequence is shown, tags or fusion partners need not be part of it.

By UniProt entry, the sequences of proteins in these tests, tags left out.
UniProt Q9C9W9: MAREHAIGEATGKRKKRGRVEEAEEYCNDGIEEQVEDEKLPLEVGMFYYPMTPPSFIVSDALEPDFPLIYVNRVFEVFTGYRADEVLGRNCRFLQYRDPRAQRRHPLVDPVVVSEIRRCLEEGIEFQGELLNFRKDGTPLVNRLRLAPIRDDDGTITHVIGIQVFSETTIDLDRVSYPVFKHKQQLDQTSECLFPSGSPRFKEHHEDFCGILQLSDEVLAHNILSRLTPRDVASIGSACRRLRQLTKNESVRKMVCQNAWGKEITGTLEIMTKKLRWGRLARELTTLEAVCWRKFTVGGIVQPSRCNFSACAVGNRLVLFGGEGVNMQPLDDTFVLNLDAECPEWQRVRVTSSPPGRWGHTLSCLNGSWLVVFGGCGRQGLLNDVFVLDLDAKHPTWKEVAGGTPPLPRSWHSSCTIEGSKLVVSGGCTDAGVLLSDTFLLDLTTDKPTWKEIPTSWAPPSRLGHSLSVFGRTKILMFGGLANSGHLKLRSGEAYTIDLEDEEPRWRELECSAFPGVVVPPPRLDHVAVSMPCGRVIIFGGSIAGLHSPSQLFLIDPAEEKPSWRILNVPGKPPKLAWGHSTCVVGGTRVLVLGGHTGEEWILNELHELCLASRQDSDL

Molecular target: YFP-FKF1 (UniProt Q9C9W9)
Test: co-localisation of CFP and YFP fusions co-injected into onion epidermal cells (indirect; interaction inferred from the same location)

B1: CFP-COL8 (protein, Arabidopsis thaliana, UniProt Q9M9B3 1-319, looked up, not shown: large carriers)
chain: MFCAEIMISKYQEDVKQPRACELCLNKHAVWYCASDDAFLCHVCDESVHSANHVATKHERVCLRTNEISNDVRGGTTLTSVWHSGFRRKARTPRSRYEKKPQQKIDDERRREDPRVPEIGGEVMFFIPEANDDDMTSLVPEFEGFTEMGFFLSNHNGTEETTKQFNFEEEADTMEDLYYNGEEEDKTDGAEACPGQYLMSCKKDYDNVITVSEKTEEIEDCYENNARHRLNYENVIAAWDKQESPRDVKNNTSSFQLVPPGIEEKRVRSEREARVWRYRDKRKNRLFEKKIRYEVRKVNADKRPRMKGRFVRRSLAIDS
binding: binds
